Measurements as given in paper PMC4605787.
No constants are given. Whether binding was seen depends on the method and setting. Binding seen in cells or lysates may run through a third protein. A yes stands for co-enrichment or nearness to the bait. Other partners may have been found.

Chains of the proteins cited; added tags and fusions are not shown.
UniProt P47197: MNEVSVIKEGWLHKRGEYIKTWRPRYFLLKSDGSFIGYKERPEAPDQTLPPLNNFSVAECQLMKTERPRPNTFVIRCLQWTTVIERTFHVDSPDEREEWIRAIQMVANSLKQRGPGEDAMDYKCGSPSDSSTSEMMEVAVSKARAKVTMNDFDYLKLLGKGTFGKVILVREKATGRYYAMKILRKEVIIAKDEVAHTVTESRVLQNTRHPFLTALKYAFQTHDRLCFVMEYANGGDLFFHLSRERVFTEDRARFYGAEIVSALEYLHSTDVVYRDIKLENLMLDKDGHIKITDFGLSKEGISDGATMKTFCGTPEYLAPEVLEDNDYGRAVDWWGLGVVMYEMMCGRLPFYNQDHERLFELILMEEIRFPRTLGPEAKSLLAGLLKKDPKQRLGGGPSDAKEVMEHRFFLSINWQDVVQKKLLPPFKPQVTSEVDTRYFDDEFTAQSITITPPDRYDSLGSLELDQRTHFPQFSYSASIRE

biological target: Akt2 (rat (endogenous in L6 myoblasts)) (UniProt P47197); assay: affinity purification with mass spectrometry; endogenous Akt2 immunoprecipitated (2 ug rabbit polyclonal anti-Akt2, protein A beads, overnight, 4°C) from 1 mg L6 myoblast lysate precleared with NIgG; cells serum-starved, with or without 100 nM insulin for 15 min; lysis buffer 50 mM HEPES pH 7.6, 150 mM NaCl, 1% Triton; 1D-SDS-PAGE, in-gel trypsin digestion, HPLC-ESI-MS/MS, label-free quantification; hits absent from all NIgG controls

Row | binding | Binder
1 | binds | Nucleolar RNA helicase 2 (protein, UniProt Q3B8Q1 1-782) MPGKLRSASKSESEGTEESMETLQKPSEKKTRKEKPKSKTDEATEGVEEAASSKVKAVKKKGPSEDDVGPPKSKKAKKQEEEPQDDPASKSKTSKKKKEPLEKKAPSAKTKEMKAEEPSEEEADAPKPKKTKKGKEANGDVGEKSPGLKNGLSHPKPDSSSTQAPGEESETEKEIPVEQKEGAFSNFPISEETVKLLKARGVNFLFPIQAKTFHHVYSGKDLIAQARTGTGKTFSFAIPLIEKLQGGLQERKRGRAPQVLVLAPTRELANQVSKDFSDITKKLSVACFYGGTPYGGQIERMRSGIDILVGTPGRIKDHLQNGKLDLTKLKHVVLDEVDQMLDMGFADQVEEILCVAYKKDSEDNPQTLLFSATCPHWVFNVAKKYMKSTYEQVDLIGKKTQKAAITVEHLAIKCHWTERAAVIGDVIRVYSGHQGRTIIFCETKKDAQELSQNTCIKQDAQSLHGDIPQKQREITLKGFRNGNFGVLVATNVAARGLDIPEVDLVVQSCPPKDVESYIHRSGRTGRAGRTGVCICFYQHKEEYQLAQVEQKAGIKFKRIGVPSATEIIKASSKDAIRLLDSVPPTAIGHFKQSAEKLIEEKGAVEALAAALAHISGATSVDQRSLINSQAGFVTMILRCSVEMPNISYAWKELKEQLGESIDAKVKGMVFLKGKLGVCFDVRTEAVTEIKEKWHDSRRWQLTVATEQPELEGPPEGYRGGRGQRDGSRGSFRGQRGGSRNFRGQGQRGGSRNFRGQRPGGGNKSNRSPNKGQKRSFSKAFGQ
2 | binds | Transgelin (protein, UniProt P31232 1-201) MANKGPSYGMSREVQSKIEKKYDEELEERLVEWIVMQCGPDVGRPDRGRLGFQVWLKNGVILSKLVNSLYPEGSKPVKVPENPPSMVFKQMEQVAQFLKAAEDYGVTKTDMFQTVDLFEGKDMAAVQRTVMALGSLAVTKNDGHYRGDPNWFMKKAQEHKREFTDSQLQEGKHVIGLQMGSNRGASQAGMTGYGRPRQIIS
3 | binds | Ubiquitin-conjugating enzyme E2 N (protein, UniProt Q9EQX9 1-152) MAGLPRRIIKETQRLLAEPVPGIKAEPDESNARYFHVVIAGPQDSPFEGGTFKLELFLPEEYPMAAPKVRFMTKIYHPNVDKLGRICLDILKDKWSPALQIRTVLLSIQALLSAPNPDDPLANDVAEQWKSNEAQAIETARAWTRLYAMNNI
4 | binds | Protein CDV3 homolog (protein, UniProt Q5XIM5 1-236) MAETEERSLDNFFAKRDKKKKKERSSRAANAASGAGGSSAAAGSRPGDGGSLGSGARSGDGGSSGSGARSGDGGSLGSGARSGDGGTSRSGDGGSAGPGGKAITKDENEWKEFEQKEVDYSGLRVQAMQISEKEDDDNEKREDPGDNWEEGGGGSGAEKSSGPWNKTALVQAPPAPVTVTETPEPAMPSGVYRPPGARLTTTRKTPQGPPEIYSDTQFPSLQSTAKHVESRNRYLK
5 | binds | Thioredoxin-like protein 1 (protein, UniProt Q920J4 1-289) MVGVKPVGSDPDFQPELSGAGSRLAVVKFTMRGCGPCLRIAPAFSSMSNKYPQAVFLEVDVHQCQGTAATNNISATPTFLFFRNKVRIDQYQGADAVGLEEKIKQHLENDPGSNEDTDIPKGYMDLMPFINKAGCECLNESDEHGFDNCLRKDLSFLESDCDEQLLITVAFNQPVKLYSMKFQGPDNGQGPKYVKIFINLPRSMDFEEAERSEPTQALELTEDDIKEDGIVPLRYVKFQNVNSVTLFVQSNQGEEETTRISYFTFIGTPVQATNMNDFKRVVGKKGESH
